Test results taken from patent US8492378B2, “GSK-3β inhibitor” (Takeda Pharmaceutical Company Limited, priority 2006, dated 2013).
Some results were stated once for a whole list of compounds, not compound by compound.

Sequences of proteins named here, by UniProt entry; tags and fusion partners are left off. A line that says so, or that is headed by a name, gives the form on record, which may keep a tag or linker.
UniProt P49841, other isoform, or with tags, fused parts or gaps: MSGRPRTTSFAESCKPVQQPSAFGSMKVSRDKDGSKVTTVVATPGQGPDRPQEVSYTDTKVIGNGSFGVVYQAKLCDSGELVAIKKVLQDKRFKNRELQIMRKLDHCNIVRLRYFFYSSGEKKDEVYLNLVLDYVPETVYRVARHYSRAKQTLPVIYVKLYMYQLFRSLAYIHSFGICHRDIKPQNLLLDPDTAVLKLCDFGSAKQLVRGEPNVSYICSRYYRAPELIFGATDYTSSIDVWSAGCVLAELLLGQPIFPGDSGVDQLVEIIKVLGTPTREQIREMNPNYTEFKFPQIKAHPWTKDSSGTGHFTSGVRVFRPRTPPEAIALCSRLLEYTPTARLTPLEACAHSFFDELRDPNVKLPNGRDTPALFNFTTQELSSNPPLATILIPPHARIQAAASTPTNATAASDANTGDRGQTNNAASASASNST

Target: GSK-3β (Homo sapiens, UniProt P49841)
Test: GSK-3β inhibitory activity evaluation (Kinase Glo luminescence)
Assay type: biochemical
Parameters: FLAG (N); made in house; host or cells: Sf-21 insect cells, recombinant baculovirus (pFASTBAC1, BAC-TO-BAC)
Conditions: recombinant human GSK-3β, read-out: IC50 value (GSK-3β inhibition)

| SMILES | IC50 |
| --- | --- |
| Cc1nnc(-c2ccc3occ(-c4ccc([S+](C)[O-])cc4Cl)c3c2)o1 (single isomer, unassigned) [Example 311, 2-[3-[2-chloro-4-(methylsulfinyl)phenyl]-1-benzofuran-5-yl]-5-methyl-1,3,4-oxadiazole] | ≤ 100 nM |
| CC[S+]([O-])c1ccc(-c2coc3ccc(-c4nnc(C)o4)cc23)c(Cl)c1 (single isomer, unassigned) [Example 313, 2-[3-[2-chloro-4-(ethylsulfinyl)phenyl]-1-benzofuran-5-yl]-5-methyl-1,3,4-oxadiazole] | ≤ 100 nM |
| Cc1nnc(-c2ccc3occ(-c4ccc([S+](C)[O-])c(F)c4)c3c2)o1 (single isomer, unassigned) [Example 316, 2-[3-[3-fluoro-4-(methylsulfinyl)phenyl]-1-benzofuran-5-yl]-5-methyl-1,3,4-oxadiazole] | ≤ 100 nM |
| Cc1nnc(-c2ccc3occ(-c4ccc([S+](C)[O-])c(OC(F)(F)F)c4)c3c2)o1 (single isomer, unassigned) [Example 317, 2-methyl-5-[3-[4-(methylsulfinyl)-3-(trifluoromethoxy)phenyl]-1-benzofuran-5-yl]-1,3,4-oxadiazole] | ≤ 100 nM |
| Cc1nnc(-c2ccc3occ(-c4ccc5c(c4)C(C)(C)C[S+]5[O-])c3c2)o1 (single isomer, unassigned) [Example 491, optically active form of 2-[3-(3,3-dimethyl-1-oxido-2,3-dihydro-1-benzothien-5-yl)-1-benzofuran-5-yl]-5-methyl-1,3,4-oxadiazole (short retention time)] | ≤ 100 nM |
| FC(F)(F)c1cccc(CSc2nnc(-c3ccc4ncsc4c3)o2)c1 [Example 1, 6-[5-[[3-(trifluoromethyl)benzyl]thio]-1,3,4-oxadiazol-2-yl]benzothiazole] | ≤ 100 nM |
| COc1ccc(CSc2nnc(-c3ccc4ncsc4c3)o2)cc1 [Example 2, 6-[5-[(4-methoxybenzyl)thio]-1,3,4-oxadiazol-2-yl]benzothiazole] | ≤ 100 nM |
| COc1ccc(CSc2nnc(-c3ccc4ncsc4c3)o2)cc1C#N [Example 4, 5-[[[5-(benzothiazol-6-yl)-1,3,4-oxadiazol-2-yl]thio]methyl]-2-methoxybenzonitrile] | ≤ 100 nM |
| FC(F)(F)c1cccc(CCc2nnc(-c3ccc4ncsc4c3)o2)c1 [Example 5, 6-[5-[2-[3-(trifluoromethyl)phenyl]ethyl]-1,3,4-oxadiazol-2-yl]benzothiazole] | ≤ 100 nM |
| FC(F)(F)c1cccc(CCc2nnc(-c3ccc4ncoc4c3)o2)c1 [Example 6, 6-[5-[2-[3-(trifluoromethyl)phenyl]ethyl]-1,3,4-oxadiazol-2-yl]benzoxazole] | ≤ 100 nM |
| FC(F)(F)c1cccc(CSc2nnc(-c3ccc4[nH]ncc4c3)o2)c1 [Example 7, 5-[5-[[3-(trifluoromethyl)benzyl]thio]-1,3,4-oxadiazol-2-yl]-1H-indazole] | ≤ 100 nM |
| N#Cc1cccc(CSc2nnc(-c3ccc4[nH]ncc4c3)o2)c1 [Example 8, 3-[[[5-(1H-indazol-5-yl)-1,3,4-oxadiazol-2-yl]thio]methyl]benzonitrile] | ≤ 100 nM |
| COc1ccc(CSc2nnc(-c3ccc4[nH]ncc4c3)o2)cc1 [Example 9, 5-[5-[(4-methoxybenzyl)thio]-1,3,4-oxadiazol-2-yl]-1H-indazole] | ≤ 100 nM |
| COc1ccc(CSc2nnc(-c3ccc4[nH]ncc4c3)o2)cc1C(F)(F)F [Example 10, 5-[5-[[4-methoxy-3-(trifluoromethyl)benzyl]thio]-1,3,4-oxadiazol-2-yl]-1H-indazole] | ≤ 100 nM |
| COc1ccc(CSc2nnc(-c3ccc4[nH]ncc4c3)o2)cc1C#N [Example 11, 5-[[[5-(1H-indazol-5-yl)-1,3,4-oxadiazol-2-yl]thio]methyl]-2-methoxybenzonitrile] | ≤ 100 nM |
| FC(F)(F)c1cccc(CCc2nnc(-c3ccc4[nH]ncc4c3)o2)c1 [Example 12, 5-[5-[2-[3-(trifluoromethyl)phenyl]ethyl]-1,3,4-oxadiazol-2-yl]-1H-indazole] | ≤ 100 nM |
| COc1ccc(CCc2nnc(-c3ccc4[nH]ncc4c3)o2)cc1C(F)(F)F [Example 13, 5-[5-[2-[4-methoxy-3-(trifluoromethyl)phenyl]ethyl]-1,3,4-oxadiazol-2-yl]-1H-indazole] | ≤ 100 nM |
| FC(F)(F)c1cccc(CSc2nnc(-c3ccc4nccn4c3)o2)c1 [Example 17, 6-[5-[[3-(trifluoromethyl)benzyl]thio]-1,3,4-oxadiazol-2-yl]imidazo[1,2-a]pyridine] | ≤ 100 nM |
| Fc1cccc(CSc2nnc(-c3ccc4nccn4c3)o2)c1 [Example 18, 6-[5-[(3-fluorobenzyl)thio]-1,3,4-oxadiazol-2-yl]imidazo[1,2-a]pyridine] | ≤ 100 nM |
| COc1ccc(CSc2nnc(-c3ccc4nccn4c3)o2)cc1 [Example 20, 6-[5-[(4-methoxybenzyl)thio]-1,3,4-oxadiazol-2-yl]imidazo[1,2-a]pyridine] | ≤ 100 nM |
| COc1ccc(-c2cnc3ccc(-c4nnc(SCc5cccc(C#N)c5)o4)cn23)cc1 [Example 22, 3-[[[5-[3-(4-methoxyphenyl)imidazo[1,2-a]pyridin-6-yl]-1,3,4-oxadiazol-2-yl]thio]methyl]benzonitrile] | ≤ 100 nM |

| SMILES | IC50 |
| --- | --- |
| FC(F)(F)c1cccc(CCc2nnc(-c3ccc4nccn4c3)o2)c1 [Example 27, 6-[5-[2-[3-(trifluoromethyl)phenyl]ethyl]-1,3,4-oxadiazol-2-yl]imidazo[1,2-a]pyridine] | ≤ 100 nM |
| COc1ccc(CCc2nnc(-c3ccc4nccn4c3)o2)cc1C(F)(F)F [Example 28, 6-[5-[2-[4-methoxy-3-(trifluoromethyl)phenyl]ethyl]-1,3,4-oxadiazol-2-yl]imidazo[1,2-a]pyridine] | ≤ 100 nM |
| FC(F)(F)c1cccc(CSc2nnc(-c3ccn4ncnc4c3)o2)c1 [Example 29, 7-[5-[[3-(trifluoromethyl)benzyl]thio]-1,3,4-oxadiazol-2-yl]-1,2,4-triazolo[1,5-a]pyridine] | ≤ 100 nM |
| COc1ccc(CSc2nnc(-c3ccn4ncnc4c3)o2)cc1C(F)(F)F [Example 30, 7-[5-[[4-methoxy-3-(trifluoromethyl)benzyl]thio]-1,3,4-oxadiazol-2-yl]-1,2,4-triazolo[1,5-a]pyridine] | ≤ 100 nM |
| COc1ccc(CSc2nnc(-c3ccc4c(c3)CCO4)o2)cc1C#N [Example 49, 5-[[[5-(2,3-dihydro-1-benzofuran-5-yl)-1,3,4-oxadiazol-2-yl]thio]methyl]-2-methoxybenzonitrile] | ≤ 100 nM |
| Fc1ccc(CSc2nnc(-c3ccc4c(c3)CCO4)o2)cc1F [Example 50, 2-[(3,4-difluorobenzyl)thio]-5-(2,3-dihydro-1-benzofuran-5-yl)-1,3,4-oxadiazole] | ≤ 100 nM |
| Fc1ccc(CSc2nnc(-c3ccc4c(c3)CCO4)o2)cc1C(F)(F)F [Example 51, 2-(2,3-dihydro-1-benzofuran-5-yl)-5-[[4-fluoro-3-(trifluoromethyl)benzyl]thio]-1,3,4-oxadiazole] | ≤ 100 nM |
| N#Cc1cccc(CSc2nnc(-c3ccc4c(c3)CCO4)o2)c1 [Example 56, 3-[[[5-(2,3-dihydro-1-benzofuran-5-yl)-1,3,4-oxadiazol-2-yl]thio]methyl]benzonitrile] | ≤ 100 nM |
| c1ccc2c(CSc3nnc(-c4ccc5c(c4)CCO5)o3)cccc2c1 [Example 57, 2-(2,3-dihydro-1-benzofuran-5-yl)-5-[(1-naphthylmethyl)thio]-1,3,4-oxadiazole] | ≤ 100 nM |
| OCc1ccc(CSc2nnc(-c3ccc4c(c3)CCO4)o2)cc1 [Example 79, [4-[[[5-(2,3-dihydro-1-benzofuran-5-yl)-1,3,4-oxadiazol-2-yl]thio]methyl]phenyl]methanol] | ≤ 100 nM |
| c1cc(CSc2nnc(-c3ccc4c(c3)CCO4)o2)n2ccnc2c1 [Example 83, 5-[[[5-(2,3-dihydro-1-benzofuran-5-yl)-1,3,4-oxadiazol-2-yl]thio]methyl]imidazo[1,2-a]pyridine] | ≤ 100 nM |
| COc1ccc(-c2coc3ccc(-c4nnc(C)o4)cc23)cc1 [Example 131, 2-[3-(4-methoxyphenyl)-1-benzofuran-5-yl]-5-methyl-1,3,4-oxadiazole] | ≤ 100 nM |
| Cc1nnc(-c2ccc3occ(-c4ccc(F)cc4)c3c2)o1 [Example 132, 2-[3-(4-fluorophenyl)-1-benzofuran-5-yl]-5-methyl-1,3,4-oxadiazole] | ≤ 100 nM |
| Cc1nnc(-c2ccc3occ(-c4ccc(C(=O)O)cc4)c3c2)o1 [Example 134, 4-[5-(5-methyl-1,3,4-oxadiazol-2-yl)-1-benzofuran-3-yl]benzoic acid] | ≤ 100 nM |
| Cc1nnc(-c2ccc3occ(-c4ccc(CO)cc4)c3c2)o1 [Example 135, [4-[5-(5-methyl-1,3,4-oxadiazol-2-yl)-1-benzofuran-3-yl]phenyl]methanol] | ≤ 100 nM |
| Cc1nnc(-c2ccc3occ(-c4ccc(C(N)=O)cc4)c3c2)o1 [Example 137, 4-[5-(5-methyl-1,3,4-oxadiazol-2-yl)-1-benzofuran-3-yl]benzamide] | ≤ 100 nM |
| Cc1nnc(-c2ccc3occ(-c4ccc(N(C)C)cc4)c3c2)o1 [Example 138, N,N-dimethyl-4-[5-(5-methyl-1,3,4-oxadiazol-2-yl)-1-benzofuran-3-yl]aniline] | ≤ 100 nM |
| CSc1ccc(-c2coc3ccc(-c4nnc(C)o4)cc23)cc1 [Example 139, 2-methyl-5-[3-[4-(methylthio)phenyl]-1-benzofuran-5-yl]-1,3,4-oxadiazole] | ≤ 100 nM |
| Cc1nnc(-c2ccc3occ(-c4ccc(S(C)(=O)=O)cc4)c3c2)o1 [Example 141, 2-methyl-5-[3-[4-(methylsulfonyl)phenyl]-1-benzofuran-5-yl]-1,3,4-oxadiazole] | ≤ 100 nM |
| Cc1nnc(-c2ccc3occ(-c4cccc(F)c4)c3c2)o1 [Example 142, 2-[3-(3-fluorophenyl)-1-benzofuran-5-yl]-5-methyl-1,3,4-oxadiazole] | ≤ 100 nM |
| COc1cccc(-c2coc3ccc(-c4nnc(C)o4)cc23)c1 [Example 143, 2-[3-(3-methoxyphenyl)-1-benzofuran-5-yl]-5-methyl-1,3,4-oxadiazole] | ≤ 100 nM |
